# Assay results

Data taken from PubChem BioAssay AID504749, deposited by NCATS (2011).

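A panel of P. falciparum strains inside erythrocytes is exposed to compounds for three days, then a DNA-binding dye reports the amount of parasite DNA.
Each compound was titrated across a series from about 0.000037 to 29 µM.
The number is the fitted AC50, the concentration giving a half-maximal change in signal; a lower value means higher potency, whether the curve shows a decrease or an increase.
Calls follow the curve class and fit quality: every row here is inconclusive, covering signal-raising curves and weak, poorly fitted, partial or highest-dose-only inhibition curves.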

Values are in µM.
Every entry below has the call inconclusive.
These entries are mostly ones the record files as inconclusive; other results of the assay are not listed here.
A potency from a partial, single-point or poor curve is only a rough figure.

- Nc1ccc(N)cc1 [ECU] : potency 17.78 µM (inhibitor, single point)
- Nc1ccc(N)cc1 [AS120] : potency 12.59 µM (inhibitor, single point)
- Nc1ccc(N)cc1 [FAB9] : potency 17.78 µM (inhibitor, single point)
- Nc1ccc(N)cc1 [CP325] : potency 13.46 µM (inhibitor, single point)
- Nc1ccc(N)cc1 [DFO2036] : potency 11.22 µM (inhibitor, single point)
- Nc1ccc(N)cc1 [7G8] : potency 10 µM (inhibitor, single point)
- Nc1ccc(N)cc1 [AA1029] : potency 10 µM (inhibitor, single point)
- Nc1ccc(N)cc1 [CP211] : potency 19.01 µM (inhibitor, single point)
- Nc1ccc(N)cc1 [CP252] : potency 15.85 µM (inhibitor, single point)
- Nc1ccc(N)cc1 [PAD] : potency 17.78 µM (inhibitor, single point)
- Nc1ccc(N)cc1 [ATS189] : potency 8.912 µM (inhibitor, single point)
- Nc1ccc(N)cc1 [CP305] : potency 16.94 µM (inhibitor, single point)
- Nc1ccc(N)cc1 [CP262] : potency 13.46 µM (inhibitor, single point)
- Nc1ccc(N)cc1 [N140] : potency 17.78 µM (inhibitor, single point)
- Nc1ccc(N)cc1 [CP268] : potency 12 µM (inhibitor, single point)
- Cc1ccc(S(=O)(=O)N[C@@H](CCCCN)C(=O)CCl)cc1 [CP237] : potency 17.78 µM (inhibitor, single point)
- Cc1ccc(S(=O)(=O)N[C@@H](CCCCN)C(=O)CCl)cc1 [W2] : potency 19.01 µM (inhibitor, partial curve, poor fit)
- Cc1ccc(S(=O)(=O)N[C@@H](CCCCN)C(=O)CCl)cc1 [ECU] : potency 17.78 µM (inhibitor, single point)
- Cc1ccc(S(=O)(=O)N[C@@H](CCCCN)C(=O)CCl)cc1 [DIV17] : potency 19.01 µM (inhibitor, single point)
- Cc1ccc(S(=O)(=O)N[C@@H](CCCCN)C(=O)CCl)cc1 [CP265] : potency 8.912 µM (inhibitor, partial curve, poor fit)
- Cc1ccc(S(=O)(=O)N[C@@H](CCCCN)C(=O)CCl)cc1 [3D7] : potency 11.22 µM (inhibitor, single point)
- Cc1ccc(S(=O)(=O)N[C@@H](CCCCN)C(=O)CCl)cc1 [JCK] : potency 10 µM (inhibitor, partial curve, poor fit)
- Cc1ccc(S(=O)(=O)N[C@@H](CCCCN)C(=O)CCl)cc1 [CP194] : potency 15.1 µM (inhibitor, single point)
- Cc1ccc(S(=O)(=O)N[C@@H](CCCCN)C(=O)CCl)cc1 [CP238] : potency 10 µM (inhibitor, single point)
- Cc1ccc(S(=O)(=O)N[C@@H](CCCCN)C(=O)CCl)cc1 [HB3] : potency 14.13 µM (inhibitor, single point)
- Cc1ccc(S(=O)(=O)N[C@@H](CCCCN)C(=O)CCl)cc1 [SC27B] : potency 12.59 µM (inhibitor, partial curve)
- Cc1ccc(S(=O)(=O)N[C@@H](CCCCN)C(=O)CCl)cc1 [CP305] : potency 6.746 µM (inhibitor, partial curve, poor fit)
- Cc1ccc(S(=O)(=O)N[C@@H](CCCCN)C(=O)CCl)cc1 [CP329] : potency 6.012 µM (inhibitor, partial curve)
- Cc1ccc(S(=O)(=O)N[C@@H](CCCCN)C(=O)CCl)cc1 [CP262] : potency 19.01 µM (inhibitor, partial curve, poor fit)
- Cc1ccc(S(=O)(=O)N[C@@H](CCCCN)C(=O)CCl)cc1 [Dd2] : potency 14.13 µM (inhibitor, partial curve)
- Cc1ccc(S(=O)(=O)N[C@@H](CCCCN)C(=O)CCl)cc1 [CP252] : potency 11.22 µM (inhibitor, partial curve)
- Cc1ccc(S(=O)(=O)N[C@@H](CCCCN)C(=O)CCl)cc1 [CP260] : potency 8.912 µM (inhibitor, single point)
- Cc1ccc(S(=O)(=O)N[C@@H](CCCCN)C(=O)CCl)cc1 [CP291] : potency 8.492 µM (inhibitor, partial curve, poor fit)
- Cc1ccc(S(=O)(=O)N[C@@H](CCCCN)C(=O)CCl)cc1 [CP217] : potency 8.912 µM (inhibitor, partial curve)
- Cc1ccc(S(=O)(=O)N[C@@H](CCCCN)C(=O)CCl)cc1 [CP185] : potency 10 µM (inhibitor, partial curve)
- Cc1ccc(S(=O)(=O)N[C@@H](CCCCN)C(=O)CCl)cc1 [CP335] : potency 19.01 µM (inhibitor, single point)

Some entries from above, unchanged:

* Nc1ccc(N)cc1 [CP252] | potency 15.85 µM (inhibitor, single point)
* Cc1ccc(S(=O)(=O)N[C@@H](CCCCN)C(=O)CCl)cc1 [HB3] | potency 14.13 µM (inhibitor, single point)
* Nc1ccc(N)cc1 [CP325] | potency 13.46 µM (inhibitor, single point)
* Nc1ccc(N)cc1 [7G8] | potency 10 µM (inhibitor, single point)